In patent publication US20110271358A1 (Dana-Farber, published 2011):
Changes are numbered by the printed parent chain. These are yes or no findings as the source states them, for the method shown. Some results given as binding are weak or reduced against the parent protein; the word gives no strength. Values belong to the binder of their own block, whether it stands above or below them.

Protein sequences, listed by entry. Tags and fused reporters are not part of them. Lines headed by an entry give the natural chain unless they say otherwise; changes in a name come on top.
UniProt Q15116: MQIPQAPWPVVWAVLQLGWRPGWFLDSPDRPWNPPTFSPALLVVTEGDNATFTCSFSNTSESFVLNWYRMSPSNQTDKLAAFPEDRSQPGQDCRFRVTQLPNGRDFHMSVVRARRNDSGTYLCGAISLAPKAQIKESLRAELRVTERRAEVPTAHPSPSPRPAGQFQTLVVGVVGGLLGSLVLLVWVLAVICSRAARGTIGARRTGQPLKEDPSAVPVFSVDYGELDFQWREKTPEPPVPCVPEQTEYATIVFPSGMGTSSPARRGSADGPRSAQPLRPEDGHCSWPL

How the values were obtained:
[1] = molecular target: T1, human Fc-PD-1 (R&D systems) (human, UniProt Q15116 25-167); assay: competition ELISA on coated human Fc-PD-1
T1 construct: Bought Fc fusion coated on the ELISA plate; also called human PD-1; not shown: Fc part of the bought fusion protein

[2] = molecular target: T1, human Fc-PD-1 (R&D systems); assay: competition ELISA on coated human Fc-PD-1; competitor biotinylated EH12.2H7

binding [1]: binds
binding [2]: binds
B1: EH12.2H7 composite, human antibody VH3/VK4 (antibody, V domains shown)
VH: QVQLVQSGHEVKQPGASVKMSCKASGYSFTSSWIHWVKQAPGQGLEWIGYIYPSTGFTEYNQKFKDRATLTADKSTSTAYMELSSLRSEDTAVYYCARWRDSSGYHAMDYWGQGTLVTVSS
VL: DIVLTQSPATLSLSPGQRLTISCRASQSVSTSGYSYMHWYQQKPDQSPKLLIKFGSNLESGIPARFSGSGSGTDFTLTISSLEPEDFAVYYCQHSWEIPYTFGQGTKLEIK
notes: V regions cloned into vectors containing human constant regions (quantified against an IgG1/kappa standard; isotype not expressly stated)

binding [1]: binds
binding [2]: binds
B2: EH12.2H7 composite, human antibody VH4/VK4 (antibody, V domains shown)
VH: B1 VH with K38R
VL: B1 VL
notes: as for B1
